Measured values: patent US7078203
These are yes or no findings as the source states them, for the method shown. Some results given as binding are weak or reduced against the parent protein; the word gives no strength. Where a sequence is shown, tags or fusion partners need not be part of it.

Chains of the proteins cited; added tags and fusions are not shown. Lines headed by an entry give the natural chain unless they say otherwise; changes in a name come on top.
UniProt P04386: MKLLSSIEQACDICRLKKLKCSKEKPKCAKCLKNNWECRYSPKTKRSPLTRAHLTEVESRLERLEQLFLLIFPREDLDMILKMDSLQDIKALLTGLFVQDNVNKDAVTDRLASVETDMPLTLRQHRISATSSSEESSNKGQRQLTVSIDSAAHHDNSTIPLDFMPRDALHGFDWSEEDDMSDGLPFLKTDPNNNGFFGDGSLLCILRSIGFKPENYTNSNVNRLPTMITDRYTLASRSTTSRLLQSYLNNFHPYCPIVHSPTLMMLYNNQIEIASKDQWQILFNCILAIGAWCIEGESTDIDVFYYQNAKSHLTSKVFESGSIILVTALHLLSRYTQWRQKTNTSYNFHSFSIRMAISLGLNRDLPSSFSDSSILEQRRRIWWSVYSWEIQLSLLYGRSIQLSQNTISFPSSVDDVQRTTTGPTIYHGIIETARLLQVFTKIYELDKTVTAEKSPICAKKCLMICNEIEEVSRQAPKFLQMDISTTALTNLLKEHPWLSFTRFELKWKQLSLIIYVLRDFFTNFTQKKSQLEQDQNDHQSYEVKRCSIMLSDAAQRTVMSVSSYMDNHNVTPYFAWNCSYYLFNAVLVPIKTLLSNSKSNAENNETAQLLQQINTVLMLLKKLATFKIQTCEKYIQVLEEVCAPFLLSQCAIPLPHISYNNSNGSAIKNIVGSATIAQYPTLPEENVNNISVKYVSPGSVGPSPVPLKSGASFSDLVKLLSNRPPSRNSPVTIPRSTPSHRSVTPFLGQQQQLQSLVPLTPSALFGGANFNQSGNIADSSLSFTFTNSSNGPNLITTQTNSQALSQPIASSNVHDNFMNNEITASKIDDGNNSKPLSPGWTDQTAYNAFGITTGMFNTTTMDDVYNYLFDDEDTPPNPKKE
UniProt P47050: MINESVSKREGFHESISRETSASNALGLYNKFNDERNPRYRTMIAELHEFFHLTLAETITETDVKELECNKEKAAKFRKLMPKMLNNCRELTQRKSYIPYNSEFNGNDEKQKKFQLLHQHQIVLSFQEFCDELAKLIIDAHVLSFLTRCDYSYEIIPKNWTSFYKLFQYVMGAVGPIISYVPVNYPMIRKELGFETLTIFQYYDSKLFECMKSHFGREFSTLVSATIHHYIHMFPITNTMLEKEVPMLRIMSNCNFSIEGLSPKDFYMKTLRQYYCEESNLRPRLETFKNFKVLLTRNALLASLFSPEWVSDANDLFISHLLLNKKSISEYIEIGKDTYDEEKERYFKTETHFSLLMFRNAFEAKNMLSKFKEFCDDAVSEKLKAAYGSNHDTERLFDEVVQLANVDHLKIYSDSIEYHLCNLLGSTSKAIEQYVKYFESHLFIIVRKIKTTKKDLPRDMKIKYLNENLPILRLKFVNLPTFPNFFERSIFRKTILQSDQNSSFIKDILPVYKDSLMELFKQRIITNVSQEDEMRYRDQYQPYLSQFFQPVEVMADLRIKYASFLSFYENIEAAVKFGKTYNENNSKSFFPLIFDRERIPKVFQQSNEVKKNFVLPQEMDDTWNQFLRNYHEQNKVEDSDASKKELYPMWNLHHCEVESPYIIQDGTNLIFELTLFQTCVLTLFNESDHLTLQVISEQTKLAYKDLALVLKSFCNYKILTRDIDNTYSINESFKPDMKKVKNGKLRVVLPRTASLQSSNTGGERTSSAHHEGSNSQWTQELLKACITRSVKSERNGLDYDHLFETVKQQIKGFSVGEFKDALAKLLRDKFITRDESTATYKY
UniProt P53202: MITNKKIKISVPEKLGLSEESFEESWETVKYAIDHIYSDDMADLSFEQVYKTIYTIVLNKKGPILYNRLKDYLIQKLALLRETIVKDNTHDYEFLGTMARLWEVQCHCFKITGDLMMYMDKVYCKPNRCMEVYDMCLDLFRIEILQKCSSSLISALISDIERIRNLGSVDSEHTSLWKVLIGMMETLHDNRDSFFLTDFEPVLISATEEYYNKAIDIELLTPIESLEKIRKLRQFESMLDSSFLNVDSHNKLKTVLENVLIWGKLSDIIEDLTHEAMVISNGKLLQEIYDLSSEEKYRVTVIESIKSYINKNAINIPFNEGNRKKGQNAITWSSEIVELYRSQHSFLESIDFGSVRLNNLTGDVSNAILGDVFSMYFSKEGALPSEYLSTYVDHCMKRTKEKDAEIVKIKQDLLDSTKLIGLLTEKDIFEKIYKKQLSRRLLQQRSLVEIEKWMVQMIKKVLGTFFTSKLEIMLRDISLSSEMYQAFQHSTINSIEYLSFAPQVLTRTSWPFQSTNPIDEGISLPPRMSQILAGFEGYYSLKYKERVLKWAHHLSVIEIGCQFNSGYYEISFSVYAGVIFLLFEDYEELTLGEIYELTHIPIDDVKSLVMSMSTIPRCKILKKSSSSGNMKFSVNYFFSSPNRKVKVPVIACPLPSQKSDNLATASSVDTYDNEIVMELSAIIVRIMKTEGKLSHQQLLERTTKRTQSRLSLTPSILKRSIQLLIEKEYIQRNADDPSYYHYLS
UniProt Q12018: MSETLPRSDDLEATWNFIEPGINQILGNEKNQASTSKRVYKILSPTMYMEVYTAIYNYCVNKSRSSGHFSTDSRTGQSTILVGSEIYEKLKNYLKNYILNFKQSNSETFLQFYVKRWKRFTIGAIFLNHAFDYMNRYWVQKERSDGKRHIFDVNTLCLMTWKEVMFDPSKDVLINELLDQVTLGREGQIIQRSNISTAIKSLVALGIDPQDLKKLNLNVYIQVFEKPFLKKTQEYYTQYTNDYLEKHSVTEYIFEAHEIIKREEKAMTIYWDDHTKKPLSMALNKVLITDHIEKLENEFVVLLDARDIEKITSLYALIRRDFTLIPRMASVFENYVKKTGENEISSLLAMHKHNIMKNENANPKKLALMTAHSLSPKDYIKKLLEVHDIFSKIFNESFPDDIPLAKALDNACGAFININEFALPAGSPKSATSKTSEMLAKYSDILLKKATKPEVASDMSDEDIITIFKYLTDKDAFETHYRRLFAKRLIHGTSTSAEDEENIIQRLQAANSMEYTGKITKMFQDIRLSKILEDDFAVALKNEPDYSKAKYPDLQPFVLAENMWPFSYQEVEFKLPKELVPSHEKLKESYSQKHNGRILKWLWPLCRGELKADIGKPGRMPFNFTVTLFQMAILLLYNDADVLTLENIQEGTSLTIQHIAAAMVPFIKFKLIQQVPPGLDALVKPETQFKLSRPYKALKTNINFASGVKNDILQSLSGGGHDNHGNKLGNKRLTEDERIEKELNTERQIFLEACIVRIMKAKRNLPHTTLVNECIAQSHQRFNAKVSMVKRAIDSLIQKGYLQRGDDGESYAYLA

Tests used:
[1] = target: T1, CUL-C (ORF YJL047c) fused to the Gal4 DNA binding domain (yeast; S. cerevisiae) (UniProt P04386+P47050); assay: yeast two-hybrid in HF7c cells
[2] = target: T2, CUL-B (ORF YGR003w) fused to the Gal4 DNA binding domain (yeast; S. cerevisiae) (UniProt P04386+P53202); assay: yeast two-hybrid in HF7c cells
[3] = target: T3, CDC53 fused to the Gal4 DNA binding domain (pGBT8-CDC53) (yeast; S. cerevisiae) (UniProt P04386+Q12018); assay: yeast two-hybrid in HF7c cells
[4] = target: T1, CUL-C (ORF YJL047c) fused to the Gal4 DNA binding domain (yeast; S. cerevisiae); assay: yeast two-hybrid, activation of the histidine reporter gene
[5] = target: T2, CUL-B (ORF YGR003w) fused to the Gal4 DNA binding domain (yeast; S. cerevisiae); assay: as above
[6] = target: T3, CDC53 fused to the Gal4 DNA binding domain (pGBT8-CDC53) (yeast; S. cerevisiae); assay: as above

Measured: binding

B1: ScROC1 fused to the GAL4 activation domain (pGAD-ScROC1) (protein, S. cerevisiae, UniProt Q08273 1-121, looked up, not shown: large carriers)
chain: MSNEVDRMDVDEDESQNIAQSSNQSAPVETKKKRFEIKKWTAVAFWSWDIAVDNCAICRNHIMEPCIECQPKAMTDTDNECVAAWGVCNHAFHLHCINKWIKTRDACPLDNQPWQLARCGR
binds: all assays above
